Assay results as given in PubChem BioAssay AID504834 (National Center for Advancing Translational Sciences (NCATS), 2011).
The whole screen tested about 320,000 compounds, of which about 22,000 (6.9%) were called active. The shares of active, inactive and inconclusive entries below differ from those in the screen. Calls follow the shape of the dose curve; as a rule, active = well fitted inhibition curve with a large enough effect; inconclusive = small, poorly fitted or top-dose-only effect, or another doubt; inactive = no such curve, though single readings can be large or run the other way. Where the call is inconclusive, the potency comes from a doubtful curve fit.

test: Primary qHTS for delayed death inhibitors of the malarial parasite plastid, 96 hour incubation; details: P. falciparum luciferase reporter growth; series mostly up to 28.7 µM; activity change, negative = inhibition: at the top concentration
Method in brief: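 P. falciparum expressing integrated firefly luciferase grown in erythrocytes (2% hematocrit, 0.05% parasitemia final) with compounds for 96 hours at 37 C, 5% CO2. Growth inhibition read as loss of luminescence after adding luciferase detection reagent.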
% is scaled to controls: 0 for no effect and ±100 for the full control effect; potency is read from the fitted curve at half-maximal effect.

Question: For CCc1ccc(N=C2NC(=O)/C(=C/c3cc(OC)c(OC)c(OC)c3)S2)cc1, which Potency is on record?
Answer: The Potency was inconclusive: 10.4 µM [inhibitor, single point].

Question: With CCCc1cc(C(N)=O)c(NC(=O)c2ccco2)s1 as the compound, how does the Potency read?
Answer: Its Potency is active: 0.415 µM.

Question: For O=S(=O)(Nc1ccc(-c2ccc(N3CCOCC3)nn2)cc1)c1cc(Cl)ccc1Cl, which Potency is on record?
Answer: Its Potency is inconclusive: 8.28 µM [inhibitor, partial curve].

Question: Which Potency does the source give for N/N=C1\CCCc2nonc21 here?
Answer: The Potency was inconclusive: 18.5 µM [inhibitor, single point].

Question: For COc1cc2c(cc1OC)CN(C(=O)c1ccc(S(=O)(=O)N3CCCCCC3)cc1)CC2, which Potency is on record?
Answer: Its Potency is active: 0.465 µM.

Question: For Cc1ccc(C(=O)N/C(=C\c2ccco2)C(=O)N2CC(C)OC(C)C2)cc1C (stereo not given), which Potency is on record?
Answer: Its Potency is inconclusive: 18.5 µM [inhibitor, single point].

Question: For CCc1nnc(NC(=O)c2ccc(Br)o2)s1, which Potency is on record?
Answer: Its Potency is active: 5.86 µM.

Question: Which Potency does the source give for Nn1c(SCc2csc(-c3ccccc3)n2)nnc1-c1cccs1 here?
Answer: Its Potency is inconclusive: 18.5 µM [inhibitor, single point].

Question: For COc1ccc(CCN(C)CCC(=O)Nc2cc(C)ccc2C)cc1OC, which “activity change, negative = inhibition” value is on record?
Answer: The value was inactive: -5.75%.

Question: Which Potency does the source give for CCc1ccc(-c2cc(C)no2)cc1S(=O)(=O)N1CCN(c2ccccn2)CC1 here?
Answer: The Potency was inconclusive: 18.5 µM [inhibitor, single point].

Question: Which Potency does the source give for COc1cc(C(=O)Nc2cccc(-c3cn4cccnc4n3)c2)cc(OC)c1OC here?
Answer: The Potency was inconclusive: 1.17 µM [inhibitor, partial curve].

Question: For CCOc1cc(C(=O)NCc2ccco2)cc(OCC)c1OCC, which Potency is on record?
Answer: Its Potency is inconclusive: 10.4 µM [inhibitor, partial curve].

Question: Which Potency does the source give for COc1ccc(/C=N/Nc2nonc2N)cc1OC here?
Answer: Its Potency is inconclusive: 8.28 µM [inhibitor, partial curve].

Question: With CC1(C)C(=O)OC(c2cccs2)C(C)(C)C1=O (stereo not given) as the compound, how does the Potency read?
Answer: Its Potency is active: 1.85 µM.

Question: Which “activity change, negative = inhibition” value does the source give for CN(C)S(=O)(=O)c1ccc(C(=O)OCc2ccc([N+](=O)[O-])cc2)cc1 here?
Answer: The value was inactive: 7.29%.

Question: Which Potency does the source give for CCN(CC)S(=O)(=O)c1ccc2c(c1)nc(CCC(=O)OCC(=O)Nc1cc(OC)cc(OC)c1)n2C here?
Answer: The Potency was inconclusive: 0.0165 µM [inhibitor, full curve].

Question: For COC(=O)c1ccc(N2C(=O)CC(N3CCC(O)(c4ccc(Br)cc4)CC3)C2=O)cc1 (stereo not given), which “activity change, negative = inhibition” value is on record?
Answer: Its value is inactive: -11.4%.

Question: Which Potency does the source give for O=C(CSCc1ccc(Cl)cc1Cl)Nc1nccs1 here?
Answer: Its Potency is inconclusive: 18.5 µM [inhibitor, partial curve, poor fit].

Question: With CC(=O)c1ccc(S(=O)(=O)N2CCCC(N(C)CCc3ccccc3)C2)cc1 (stereo not given) as the compound, how does the Potency read?
Answer: The Potency was inconclusive: 18.5 µM [inhibitor, single point].

Question: For Cc1ccc(NC(=O)CCN2C(=O)c3ccccc3C2=O)c(C)c1, which Potency is on record?
Answer: The Potency was inconclusive: 1.47 µM [inhibitor, full curve, poor fit].
